Measurements from publication PMC12827483.
These are yes or no findings as the source states them, for the method shown. In cells and extracts the contact can be indirect. Some binding calls cover weakened binding; strength is not graded here.

Protein sequences, listed by entry. Tags and fused reporters are not part of them.
UniProt Q8IX90: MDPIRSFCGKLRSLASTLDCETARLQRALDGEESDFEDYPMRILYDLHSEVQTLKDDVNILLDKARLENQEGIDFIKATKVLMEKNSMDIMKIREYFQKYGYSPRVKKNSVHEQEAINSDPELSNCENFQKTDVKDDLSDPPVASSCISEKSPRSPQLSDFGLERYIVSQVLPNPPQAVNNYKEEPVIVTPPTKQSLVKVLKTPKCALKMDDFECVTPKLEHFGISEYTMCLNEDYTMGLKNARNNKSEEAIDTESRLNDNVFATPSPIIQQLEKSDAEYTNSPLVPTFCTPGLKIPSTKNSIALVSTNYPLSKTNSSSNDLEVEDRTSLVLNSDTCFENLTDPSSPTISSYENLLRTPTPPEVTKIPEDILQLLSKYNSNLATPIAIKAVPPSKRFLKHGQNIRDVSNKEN
UniProt Q9GZT9: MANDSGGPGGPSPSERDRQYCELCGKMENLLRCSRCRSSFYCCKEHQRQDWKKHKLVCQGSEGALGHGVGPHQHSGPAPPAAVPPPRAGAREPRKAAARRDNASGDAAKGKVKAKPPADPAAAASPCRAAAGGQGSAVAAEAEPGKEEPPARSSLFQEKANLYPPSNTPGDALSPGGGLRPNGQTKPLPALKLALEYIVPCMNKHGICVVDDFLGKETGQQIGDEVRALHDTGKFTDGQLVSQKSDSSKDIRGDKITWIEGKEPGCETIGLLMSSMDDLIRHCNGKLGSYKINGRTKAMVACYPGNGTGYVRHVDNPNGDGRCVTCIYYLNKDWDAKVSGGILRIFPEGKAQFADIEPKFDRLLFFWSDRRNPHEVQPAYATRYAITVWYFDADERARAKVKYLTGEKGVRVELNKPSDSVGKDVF

What was measured:
[1] = target: Spindle and Kinetochore Associated Protein 3 (SKA3) (human (endogenous in A549)) (UniProt Q8IX90); test: co-IP; endogenous proteins in IP lysis buffer lysates of A549 and A549-LMs cells; antibodies against PHD2 or SKA3 overnight at 4 °C, rabbit IgG control, Dynabeads Protein G; also after SKA3 siRNA; MG132 (25 μM) added for HIF-1α
[2] = target: Spindle and Kinetochore Associated Protein 3 (SKA3) (human (endogenous in A549)) (UniProt Q8IX90); test: proximity ligation; PLA in A549 cells, control (si-Ctrl) and SKA3 knockdown (si-SKA3); red puncta

For “Prolyl Hydroxylase Domain-containing protein 2 (PHD2) (from UniProt Q9GZT9 1-426) (enzyme)”, the binding [1] was “binds” and the binding [2] was “binds”.
